One molecule from publication PMC6884526 can be followed below.

For the experiment, the target named is dynein intermediate chain (endogenous, mouse brain) (mouse (endogenous in whole brain)). The experiment is described as follows: co-IP; anti-DIC antibody on Protein G Dynabeads, mouse whole brain crude light membrane fraction, 16 h at 4 °C in PBS pH 7.4 with 2 mM EDTA and 0.1% BSA; mouse IgG control.

Results are given in words; binding and its absence hold for the method and conditions named. In cells and extracts the contact can be indirect.

B1: GM130 (endogenous, mouse brain) (protein, UniProt Q921M4 1-999)
chain: MWPPRFPPPRPGMSEETRQSKLAAAKKKLREYQQKNSPGVPAGAKKKKKIKNGHSPERPTASDCQSPENVPTDHIAPAPPTAATDTMFLGVTPSPDADLTQSHDAGNCSNLMEETKTFSSTESLRQLSQQLNGLVSESTSYINGEGLTSSNMKELENRYQELAVALDSSYVTNKQLSSTIEELKQQNQDTLDQLEKEKKDYQQKLAKEQGSLREQLQVHIQTIGILVSEKAELQTALAHTQQAARQKAGESEDLASRLQSSRQRVGELERTLSTVSTQQKQADRYNKDLTKERDALKLELYKNSKSNEDLRQQNSELEEKLRVLVAEKAAAQLGVEELQKKLEMSELLLQQFSSQSSAAGGNEQLQHAMEERAQLETHVSQLMESLKQLQVERDQYAENLKGESAMWQQRVQQMAEQVHTLKEEKEHRERQVQELETSLAALRSQMEEPPPPEPPAGPSEAEEQLQGEVEQLHKELERLTGQLRAQVQDNESLSHLNREQEGRLLELEREAQRWSEQAEERKQILESMQSDRTTISRALSQNRELKEQLAELQNGFVRLTNENMEITSALQSEQHVKKELARKLGELQERLGELKETVELKSQEAQGLQEQRDQCLSHLQQYAAAYQQHLAAYEQLTSEKEAIHKQLLLQTQLMDQLQHEEVQGKMAAELARQELQEAQERLKATSQENQQLQAQLSLLVLPGEGDVDQEEEDEEVPQSSLAIPEDLDSREAMVAFFNAAIARAEEEQARLRVQLKEQKARCRSLSHLAAPVQSKLEKEAVVPRNVDDSASEESNQALHVAMEKLQSRFLEVMQEKVELKERVEELEHCCIQLSGETDTIGEYIALYQNQRAVLKARHLEKEEYISRLAQDKEEMKVKLLELQELVLRLVNERNEWQGKFLAVSQNPGDVLTPVPTGSQEFGAADQQDDLREVSLADDIEPAQGEAGVPAPHENPTAQQIMQLLREIQNPRERPGLGSNPCIPFFYRADENDEVKIMVV
For B1, the binding result is listed as “no binding”.
